Assay results from patent US5128331A, “Method for lowering plasma lipid levels or blood pressure” (priority 1988, dated 1992).

Tested on: spontaneously hypertensive rat (SHR)
Test: Oral hypotensive activity in spontaneously hypertensive rats (SHR)
Format: in vivo
Conditions: 2 hours post dose, Table 5
Description: The spontaneously hypertensive rat (SHR) is a well established animal model of human arterial hypertension.
In screening experiments various gem-diphosphonates were dissolved in Tween-80 and administered orally to SH rats. Blood pressure was monitored hourly using a tailcuff method.

SMILES: COC(=O)C1=C(C)NC(C)=C(C(=O)OC)C1c1ccccc1[N+](=O)[O-] [Nifedipine, reference compound]
- Percent change in blood pressure: -47%
